Reference: paper PMC12691818
Results are given in words; binding and its absence hold for the method and conditions named. Binding seen in cells or lysates may run through a third protein. These calls come from enrichment with a bait or labelling near it, and not all partners need be listed.

By UniProt entry, the sequences of proteins in these tests, tags left out. Where a name states a change or a piece, a line headed by the entry shows the natural chain unless it says otherwise.
UniProt A0A509AJV2: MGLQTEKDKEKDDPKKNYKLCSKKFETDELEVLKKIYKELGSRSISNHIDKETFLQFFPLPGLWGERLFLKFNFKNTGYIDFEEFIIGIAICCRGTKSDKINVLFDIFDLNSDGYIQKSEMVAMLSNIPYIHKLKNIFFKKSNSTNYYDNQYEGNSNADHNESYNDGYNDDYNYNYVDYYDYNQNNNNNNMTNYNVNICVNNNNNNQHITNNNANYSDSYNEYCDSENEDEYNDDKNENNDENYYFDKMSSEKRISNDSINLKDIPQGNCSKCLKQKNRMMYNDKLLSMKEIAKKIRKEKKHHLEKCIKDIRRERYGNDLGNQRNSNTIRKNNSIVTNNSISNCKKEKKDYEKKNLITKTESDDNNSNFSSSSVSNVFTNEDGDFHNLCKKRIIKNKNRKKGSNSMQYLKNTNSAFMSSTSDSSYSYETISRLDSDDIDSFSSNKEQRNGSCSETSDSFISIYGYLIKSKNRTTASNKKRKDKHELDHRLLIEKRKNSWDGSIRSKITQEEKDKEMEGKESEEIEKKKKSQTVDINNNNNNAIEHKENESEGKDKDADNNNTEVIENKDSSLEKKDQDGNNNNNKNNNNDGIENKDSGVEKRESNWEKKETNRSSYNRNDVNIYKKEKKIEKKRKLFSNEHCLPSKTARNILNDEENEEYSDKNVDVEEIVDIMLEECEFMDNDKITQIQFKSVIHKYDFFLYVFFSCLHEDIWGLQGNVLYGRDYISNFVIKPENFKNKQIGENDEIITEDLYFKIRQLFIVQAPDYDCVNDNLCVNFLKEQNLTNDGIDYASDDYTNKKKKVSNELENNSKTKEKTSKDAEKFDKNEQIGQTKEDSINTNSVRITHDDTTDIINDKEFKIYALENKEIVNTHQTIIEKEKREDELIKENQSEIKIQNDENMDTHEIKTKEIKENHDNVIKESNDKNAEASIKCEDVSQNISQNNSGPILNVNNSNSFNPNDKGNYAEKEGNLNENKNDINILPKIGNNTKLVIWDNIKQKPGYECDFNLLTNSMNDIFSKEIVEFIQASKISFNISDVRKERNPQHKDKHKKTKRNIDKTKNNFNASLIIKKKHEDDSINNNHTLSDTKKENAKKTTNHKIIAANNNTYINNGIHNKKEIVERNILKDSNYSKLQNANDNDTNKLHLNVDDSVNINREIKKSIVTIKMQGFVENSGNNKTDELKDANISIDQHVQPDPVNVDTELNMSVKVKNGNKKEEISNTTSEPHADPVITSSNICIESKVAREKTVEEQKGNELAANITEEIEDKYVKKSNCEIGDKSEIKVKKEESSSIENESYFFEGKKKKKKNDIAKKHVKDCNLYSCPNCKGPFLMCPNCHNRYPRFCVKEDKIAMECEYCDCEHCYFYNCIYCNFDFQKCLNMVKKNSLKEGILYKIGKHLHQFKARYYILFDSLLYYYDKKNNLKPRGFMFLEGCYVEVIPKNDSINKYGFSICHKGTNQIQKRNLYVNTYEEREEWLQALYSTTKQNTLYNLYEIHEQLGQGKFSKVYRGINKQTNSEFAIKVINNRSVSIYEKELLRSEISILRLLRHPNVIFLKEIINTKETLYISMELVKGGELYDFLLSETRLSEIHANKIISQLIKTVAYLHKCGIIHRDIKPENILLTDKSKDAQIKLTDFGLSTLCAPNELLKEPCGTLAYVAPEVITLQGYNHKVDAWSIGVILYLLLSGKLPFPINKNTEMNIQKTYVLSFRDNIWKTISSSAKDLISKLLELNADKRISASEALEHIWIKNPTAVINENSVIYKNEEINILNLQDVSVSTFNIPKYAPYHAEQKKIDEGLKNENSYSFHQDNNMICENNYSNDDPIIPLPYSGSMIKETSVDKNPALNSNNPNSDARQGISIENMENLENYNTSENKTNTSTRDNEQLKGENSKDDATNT
UniProt A0A509ASV2: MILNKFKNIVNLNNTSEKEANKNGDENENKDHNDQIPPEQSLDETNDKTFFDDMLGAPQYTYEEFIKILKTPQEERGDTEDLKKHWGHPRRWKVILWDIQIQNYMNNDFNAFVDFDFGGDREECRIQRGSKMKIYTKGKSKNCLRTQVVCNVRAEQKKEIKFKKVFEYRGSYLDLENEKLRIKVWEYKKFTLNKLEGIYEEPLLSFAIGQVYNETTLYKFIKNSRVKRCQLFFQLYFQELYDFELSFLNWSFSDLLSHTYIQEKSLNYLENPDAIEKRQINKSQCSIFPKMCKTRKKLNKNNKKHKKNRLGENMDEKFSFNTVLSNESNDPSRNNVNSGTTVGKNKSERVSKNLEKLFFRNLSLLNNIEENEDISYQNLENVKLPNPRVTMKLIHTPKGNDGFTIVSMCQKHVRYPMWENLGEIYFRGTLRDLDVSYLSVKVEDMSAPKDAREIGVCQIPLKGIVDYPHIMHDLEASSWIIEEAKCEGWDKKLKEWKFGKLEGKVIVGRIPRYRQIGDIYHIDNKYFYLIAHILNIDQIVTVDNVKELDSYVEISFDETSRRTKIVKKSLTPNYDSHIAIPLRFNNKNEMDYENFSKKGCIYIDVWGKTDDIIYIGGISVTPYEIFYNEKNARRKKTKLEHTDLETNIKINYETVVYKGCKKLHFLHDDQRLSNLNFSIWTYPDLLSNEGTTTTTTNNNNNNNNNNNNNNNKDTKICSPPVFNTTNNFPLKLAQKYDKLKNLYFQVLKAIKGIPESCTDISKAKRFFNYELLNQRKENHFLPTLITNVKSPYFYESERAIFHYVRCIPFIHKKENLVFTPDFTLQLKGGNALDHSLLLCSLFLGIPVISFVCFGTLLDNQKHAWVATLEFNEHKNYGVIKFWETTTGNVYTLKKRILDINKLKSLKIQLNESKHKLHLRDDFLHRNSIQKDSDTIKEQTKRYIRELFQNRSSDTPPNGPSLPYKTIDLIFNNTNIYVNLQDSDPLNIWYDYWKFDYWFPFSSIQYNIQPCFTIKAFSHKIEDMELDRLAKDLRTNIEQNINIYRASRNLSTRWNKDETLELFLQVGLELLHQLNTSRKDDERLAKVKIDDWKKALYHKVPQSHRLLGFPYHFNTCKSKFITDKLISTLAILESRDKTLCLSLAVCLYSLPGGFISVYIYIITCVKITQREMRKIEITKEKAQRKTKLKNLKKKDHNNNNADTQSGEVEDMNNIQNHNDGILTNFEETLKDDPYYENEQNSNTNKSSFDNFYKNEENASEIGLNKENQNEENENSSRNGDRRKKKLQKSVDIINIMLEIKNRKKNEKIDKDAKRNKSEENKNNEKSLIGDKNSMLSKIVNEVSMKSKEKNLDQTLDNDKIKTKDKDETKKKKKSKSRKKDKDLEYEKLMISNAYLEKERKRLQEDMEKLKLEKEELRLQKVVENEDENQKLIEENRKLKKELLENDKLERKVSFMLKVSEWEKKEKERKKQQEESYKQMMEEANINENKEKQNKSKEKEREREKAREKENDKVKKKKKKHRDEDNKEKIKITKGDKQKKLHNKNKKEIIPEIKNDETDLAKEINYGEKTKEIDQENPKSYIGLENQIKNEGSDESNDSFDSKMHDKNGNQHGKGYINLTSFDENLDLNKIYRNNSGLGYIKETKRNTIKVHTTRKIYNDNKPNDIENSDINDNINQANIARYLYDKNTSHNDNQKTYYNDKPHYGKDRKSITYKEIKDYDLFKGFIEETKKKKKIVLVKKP
UniProt A0A509ASP7: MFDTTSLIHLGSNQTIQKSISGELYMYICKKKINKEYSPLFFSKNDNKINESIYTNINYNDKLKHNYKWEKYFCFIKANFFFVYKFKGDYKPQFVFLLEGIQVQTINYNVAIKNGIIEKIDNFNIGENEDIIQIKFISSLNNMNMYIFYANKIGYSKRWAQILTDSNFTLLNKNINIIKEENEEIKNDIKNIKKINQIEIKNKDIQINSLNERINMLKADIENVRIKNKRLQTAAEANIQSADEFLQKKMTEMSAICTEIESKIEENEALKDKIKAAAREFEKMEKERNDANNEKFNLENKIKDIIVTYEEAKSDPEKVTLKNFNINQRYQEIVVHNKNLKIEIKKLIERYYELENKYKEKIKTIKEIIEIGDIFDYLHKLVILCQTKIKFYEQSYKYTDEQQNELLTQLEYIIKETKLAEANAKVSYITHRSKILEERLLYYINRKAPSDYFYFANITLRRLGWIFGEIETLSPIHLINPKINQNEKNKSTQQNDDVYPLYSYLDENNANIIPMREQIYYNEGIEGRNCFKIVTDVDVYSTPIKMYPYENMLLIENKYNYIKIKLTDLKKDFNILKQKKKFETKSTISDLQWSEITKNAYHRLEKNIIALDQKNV
UniProt A0A509ATV4: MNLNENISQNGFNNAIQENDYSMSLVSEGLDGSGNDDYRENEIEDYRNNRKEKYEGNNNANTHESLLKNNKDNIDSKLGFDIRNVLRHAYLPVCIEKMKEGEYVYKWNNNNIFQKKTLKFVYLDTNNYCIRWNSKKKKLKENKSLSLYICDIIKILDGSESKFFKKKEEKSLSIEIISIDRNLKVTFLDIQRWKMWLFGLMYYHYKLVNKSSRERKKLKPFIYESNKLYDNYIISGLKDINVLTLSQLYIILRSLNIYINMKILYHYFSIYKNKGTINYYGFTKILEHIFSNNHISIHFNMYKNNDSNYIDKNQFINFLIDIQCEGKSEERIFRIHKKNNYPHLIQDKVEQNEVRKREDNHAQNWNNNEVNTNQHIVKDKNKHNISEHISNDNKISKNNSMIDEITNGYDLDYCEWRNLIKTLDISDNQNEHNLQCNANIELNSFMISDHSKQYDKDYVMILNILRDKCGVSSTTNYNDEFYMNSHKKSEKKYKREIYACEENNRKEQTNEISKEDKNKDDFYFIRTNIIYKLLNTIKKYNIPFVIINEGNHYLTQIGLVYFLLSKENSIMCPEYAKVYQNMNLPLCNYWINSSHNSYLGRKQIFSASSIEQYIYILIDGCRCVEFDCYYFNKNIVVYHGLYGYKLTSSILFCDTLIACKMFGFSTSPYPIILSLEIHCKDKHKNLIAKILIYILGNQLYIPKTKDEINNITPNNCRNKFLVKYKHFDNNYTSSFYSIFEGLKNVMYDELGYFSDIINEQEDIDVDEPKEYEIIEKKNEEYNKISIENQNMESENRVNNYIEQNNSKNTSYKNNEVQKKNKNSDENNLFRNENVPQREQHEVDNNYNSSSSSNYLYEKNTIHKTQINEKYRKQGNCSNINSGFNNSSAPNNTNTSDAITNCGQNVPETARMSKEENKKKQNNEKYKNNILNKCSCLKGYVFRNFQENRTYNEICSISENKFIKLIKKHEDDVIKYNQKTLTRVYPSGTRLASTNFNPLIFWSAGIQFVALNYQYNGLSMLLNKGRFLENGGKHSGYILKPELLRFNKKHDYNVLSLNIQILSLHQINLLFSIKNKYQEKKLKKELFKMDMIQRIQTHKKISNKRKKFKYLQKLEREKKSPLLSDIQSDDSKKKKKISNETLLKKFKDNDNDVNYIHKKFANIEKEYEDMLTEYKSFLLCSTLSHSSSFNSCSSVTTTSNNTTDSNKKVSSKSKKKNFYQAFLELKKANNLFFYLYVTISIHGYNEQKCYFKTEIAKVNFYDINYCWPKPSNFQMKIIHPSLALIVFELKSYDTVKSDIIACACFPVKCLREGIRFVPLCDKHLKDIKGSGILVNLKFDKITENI

Biological target: PbRpt3-mCherry (endogenous PbRpt3 tagged with mCherry at the C-terminus in P. berghei) (Plasmodium berghei)
Assay: affinity purification with mass spectrometry; RFP-Trap beads on soluble extracts of mixed trophozoite-schizont PbRpt3-mCherry parasites, overnight at 4 °C, 20 mM Tris, 150 mM NaCl, 0.5% Triton X-100, pH 7.5; parental wild-type line as control; four biological replicates; DIA nanoLC-MS/MS

Row | binding | Substance
1 | binds | calcium-dependent protein kinase 7 (CDPK7, P. berghei) (from UniProt A0A509AJV2) (enzyme)
2 | binds | double C2-like domain-containing protein (DOC2, P. berghei) (from UniProt A0A509ASV2)
3 | binds | phosphoinositide-binding protein PH2 (P. berghei) (from UniProt A0A509ASP7)
4 | binds | phosphoinositide-binding protein PX1 (P. berghei) (from UniProt A0A509AH92)
5 | binds | phosphoinositide-specific phospholipase C (PI-PLC, P. berghei) (from UniProt A0A509ATV4) (enzyme)
